Some of the results follow.
Key:
Assay in all cases: log2 fold change, soluble protein after heating vs DMSO (PISA); higher = thermal stabilisation; K562 lysate, 10 uM; active = over 0.2 and 3.5 SD of the protein, either way, in both replicates (recomputed)
[1] = compound: CCCS(=O)(=O)Nc1ccc(F)c(C(=O)c2c[nH]c3ncc(-c4ccc(Cl)cc4)cc23)c1F [vemurafenib]
In short: (§1)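 K562 pellets were dounce-homogenised in PBS pH 7.4 containing 1 mM MgCl2, and the crude extract, at 1 mg/mL protein, was exposed to 10 μM compound for 30 min. Aliquots were heated for 3 min across 48°C-58°C, pooled, brought to 0.5% NP-40 at 4°C and spun at 21,000xg for 90 min, with the supernatant taken as soluble protein. TMTpro 16plex LC-MS/MS with equalised channel sums quantified that protein. Values are log-two fold changes in thermal stability relative to solvent controls, taken from duplicates.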

Chains of the proteins cited; added tags and fusions are not shown. Lines headed by an entry give the natural chain unless they say otherwise; changes in a name come on top.
UniProt Q9NQG6: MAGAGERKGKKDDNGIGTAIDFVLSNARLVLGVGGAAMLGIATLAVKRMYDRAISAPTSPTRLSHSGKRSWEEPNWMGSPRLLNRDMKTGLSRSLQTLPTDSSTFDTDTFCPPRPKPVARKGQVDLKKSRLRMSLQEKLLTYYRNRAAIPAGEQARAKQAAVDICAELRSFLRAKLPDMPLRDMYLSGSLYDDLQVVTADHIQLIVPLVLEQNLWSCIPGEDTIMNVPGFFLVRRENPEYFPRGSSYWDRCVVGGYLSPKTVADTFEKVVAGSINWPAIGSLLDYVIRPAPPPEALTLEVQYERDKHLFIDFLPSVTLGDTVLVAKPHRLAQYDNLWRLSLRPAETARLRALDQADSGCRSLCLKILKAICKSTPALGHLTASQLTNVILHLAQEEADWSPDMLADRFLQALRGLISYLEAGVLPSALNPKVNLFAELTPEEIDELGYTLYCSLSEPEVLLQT
UniProt Q7L9L4: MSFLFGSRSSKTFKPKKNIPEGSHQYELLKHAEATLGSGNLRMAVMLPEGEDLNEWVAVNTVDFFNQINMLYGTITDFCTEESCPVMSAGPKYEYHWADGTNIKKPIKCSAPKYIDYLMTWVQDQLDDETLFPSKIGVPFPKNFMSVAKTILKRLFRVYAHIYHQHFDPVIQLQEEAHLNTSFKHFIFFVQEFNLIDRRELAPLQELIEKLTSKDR
UniProt O14880: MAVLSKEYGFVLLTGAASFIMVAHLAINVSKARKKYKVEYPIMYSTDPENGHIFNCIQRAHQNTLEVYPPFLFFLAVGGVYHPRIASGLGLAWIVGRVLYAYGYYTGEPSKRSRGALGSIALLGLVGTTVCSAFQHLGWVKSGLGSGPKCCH
UniProt O75352: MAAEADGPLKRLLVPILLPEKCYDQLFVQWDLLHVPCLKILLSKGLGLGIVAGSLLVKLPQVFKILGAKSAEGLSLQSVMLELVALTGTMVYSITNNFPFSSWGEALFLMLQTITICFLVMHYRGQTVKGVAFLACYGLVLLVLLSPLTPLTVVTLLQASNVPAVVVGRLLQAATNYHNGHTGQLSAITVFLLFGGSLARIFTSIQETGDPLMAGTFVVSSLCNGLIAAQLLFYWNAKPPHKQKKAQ
UniProt Q9H000: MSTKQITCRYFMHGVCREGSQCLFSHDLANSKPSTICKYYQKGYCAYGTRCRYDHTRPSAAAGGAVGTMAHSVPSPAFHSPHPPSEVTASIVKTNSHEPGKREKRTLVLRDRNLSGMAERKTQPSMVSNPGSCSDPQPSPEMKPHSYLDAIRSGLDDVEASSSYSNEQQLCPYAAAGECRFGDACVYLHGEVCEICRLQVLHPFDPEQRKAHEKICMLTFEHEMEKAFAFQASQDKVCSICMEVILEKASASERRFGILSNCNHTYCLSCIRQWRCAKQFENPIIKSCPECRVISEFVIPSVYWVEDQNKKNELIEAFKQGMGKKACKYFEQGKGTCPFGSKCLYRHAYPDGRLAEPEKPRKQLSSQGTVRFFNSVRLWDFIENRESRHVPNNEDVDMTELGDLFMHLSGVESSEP
UniProt O00566: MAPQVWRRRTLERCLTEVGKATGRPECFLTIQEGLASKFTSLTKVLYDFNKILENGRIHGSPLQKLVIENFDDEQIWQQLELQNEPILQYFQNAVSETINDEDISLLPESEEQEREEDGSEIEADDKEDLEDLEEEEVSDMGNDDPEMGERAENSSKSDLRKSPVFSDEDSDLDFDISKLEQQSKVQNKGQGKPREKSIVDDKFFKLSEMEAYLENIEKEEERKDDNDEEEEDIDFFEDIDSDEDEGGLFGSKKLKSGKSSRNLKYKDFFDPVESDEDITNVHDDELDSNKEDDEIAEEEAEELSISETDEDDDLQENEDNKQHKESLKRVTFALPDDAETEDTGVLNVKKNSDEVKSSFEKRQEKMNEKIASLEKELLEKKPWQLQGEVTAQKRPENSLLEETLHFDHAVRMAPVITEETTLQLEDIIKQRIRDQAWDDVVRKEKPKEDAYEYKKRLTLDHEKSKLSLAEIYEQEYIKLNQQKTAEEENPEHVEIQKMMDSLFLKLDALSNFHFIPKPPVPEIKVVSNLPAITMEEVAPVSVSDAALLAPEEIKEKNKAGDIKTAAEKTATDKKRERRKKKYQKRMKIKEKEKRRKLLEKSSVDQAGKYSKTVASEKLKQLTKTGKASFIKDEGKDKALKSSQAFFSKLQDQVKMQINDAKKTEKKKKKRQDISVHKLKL
UniProt Q03111: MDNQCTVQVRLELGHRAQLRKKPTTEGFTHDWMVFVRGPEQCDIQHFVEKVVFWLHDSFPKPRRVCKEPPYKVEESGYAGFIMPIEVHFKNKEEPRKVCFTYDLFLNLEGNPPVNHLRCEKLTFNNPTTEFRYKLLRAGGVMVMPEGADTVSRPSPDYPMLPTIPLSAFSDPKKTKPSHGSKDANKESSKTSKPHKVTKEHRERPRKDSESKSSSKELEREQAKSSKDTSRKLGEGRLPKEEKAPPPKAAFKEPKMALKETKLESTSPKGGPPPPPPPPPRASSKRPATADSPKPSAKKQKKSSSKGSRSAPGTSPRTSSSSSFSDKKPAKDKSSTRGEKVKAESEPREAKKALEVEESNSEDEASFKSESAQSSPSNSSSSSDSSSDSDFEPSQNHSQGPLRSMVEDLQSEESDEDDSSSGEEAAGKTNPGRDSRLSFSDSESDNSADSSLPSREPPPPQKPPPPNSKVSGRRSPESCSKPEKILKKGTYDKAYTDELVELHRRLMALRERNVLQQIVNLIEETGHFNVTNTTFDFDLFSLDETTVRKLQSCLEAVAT
UniProt Q9UQ53: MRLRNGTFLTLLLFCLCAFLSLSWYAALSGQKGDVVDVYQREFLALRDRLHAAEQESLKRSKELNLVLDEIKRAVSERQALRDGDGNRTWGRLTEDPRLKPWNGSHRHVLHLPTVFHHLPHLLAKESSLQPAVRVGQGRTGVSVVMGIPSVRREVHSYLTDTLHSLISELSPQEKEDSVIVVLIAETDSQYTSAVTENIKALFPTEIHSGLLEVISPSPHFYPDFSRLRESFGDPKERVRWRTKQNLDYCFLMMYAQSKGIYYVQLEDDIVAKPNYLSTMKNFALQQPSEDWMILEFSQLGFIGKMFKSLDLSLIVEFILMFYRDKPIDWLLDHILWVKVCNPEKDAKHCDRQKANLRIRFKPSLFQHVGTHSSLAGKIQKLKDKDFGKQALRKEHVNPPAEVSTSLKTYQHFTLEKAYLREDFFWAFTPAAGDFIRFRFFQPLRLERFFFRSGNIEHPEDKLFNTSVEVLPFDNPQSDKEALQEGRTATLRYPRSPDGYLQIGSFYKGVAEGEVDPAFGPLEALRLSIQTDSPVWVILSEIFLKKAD
UniProt P22033: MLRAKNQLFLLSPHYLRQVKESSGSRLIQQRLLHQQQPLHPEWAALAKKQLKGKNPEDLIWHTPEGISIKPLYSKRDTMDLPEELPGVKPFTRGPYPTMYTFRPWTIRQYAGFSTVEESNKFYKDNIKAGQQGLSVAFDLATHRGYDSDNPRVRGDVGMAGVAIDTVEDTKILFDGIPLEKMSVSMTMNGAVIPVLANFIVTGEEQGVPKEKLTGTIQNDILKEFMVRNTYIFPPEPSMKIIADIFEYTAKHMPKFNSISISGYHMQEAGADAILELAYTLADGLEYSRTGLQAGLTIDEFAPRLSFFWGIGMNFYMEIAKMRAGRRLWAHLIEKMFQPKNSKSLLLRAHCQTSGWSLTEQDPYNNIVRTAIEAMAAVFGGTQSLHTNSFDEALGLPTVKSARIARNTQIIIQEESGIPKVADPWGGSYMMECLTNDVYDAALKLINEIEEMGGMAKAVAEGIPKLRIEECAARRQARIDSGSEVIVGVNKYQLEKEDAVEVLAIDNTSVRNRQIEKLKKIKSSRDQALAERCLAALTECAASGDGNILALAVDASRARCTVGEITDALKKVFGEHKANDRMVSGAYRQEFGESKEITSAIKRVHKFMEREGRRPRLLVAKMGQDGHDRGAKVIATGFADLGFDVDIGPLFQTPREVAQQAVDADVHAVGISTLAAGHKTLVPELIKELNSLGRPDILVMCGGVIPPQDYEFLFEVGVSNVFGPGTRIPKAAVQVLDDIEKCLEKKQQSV
UniProt Q13724: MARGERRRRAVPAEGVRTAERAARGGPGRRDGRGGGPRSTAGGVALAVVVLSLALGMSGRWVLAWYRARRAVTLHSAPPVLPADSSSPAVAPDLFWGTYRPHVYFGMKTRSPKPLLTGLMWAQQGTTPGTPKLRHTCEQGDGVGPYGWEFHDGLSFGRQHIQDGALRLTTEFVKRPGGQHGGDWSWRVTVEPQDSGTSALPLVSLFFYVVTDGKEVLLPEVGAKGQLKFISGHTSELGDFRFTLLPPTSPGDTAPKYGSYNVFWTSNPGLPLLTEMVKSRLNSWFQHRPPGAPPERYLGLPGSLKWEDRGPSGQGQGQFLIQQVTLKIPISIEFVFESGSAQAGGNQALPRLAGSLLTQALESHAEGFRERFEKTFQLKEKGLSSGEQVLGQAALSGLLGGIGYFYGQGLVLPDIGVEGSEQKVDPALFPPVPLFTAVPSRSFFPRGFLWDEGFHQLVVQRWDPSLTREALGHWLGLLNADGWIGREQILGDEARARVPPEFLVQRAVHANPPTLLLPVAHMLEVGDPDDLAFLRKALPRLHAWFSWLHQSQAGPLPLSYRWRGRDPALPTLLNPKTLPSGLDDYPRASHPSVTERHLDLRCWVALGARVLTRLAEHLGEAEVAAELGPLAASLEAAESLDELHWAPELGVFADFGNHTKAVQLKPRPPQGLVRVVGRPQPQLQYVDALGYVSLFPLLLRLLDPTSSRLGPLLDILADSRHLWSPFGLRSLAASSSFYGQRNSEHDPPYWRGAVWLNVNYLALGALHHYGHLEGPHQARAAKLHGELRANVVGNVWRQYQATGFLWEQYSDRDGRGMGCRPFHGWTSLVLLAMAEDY
UniProt Q99550: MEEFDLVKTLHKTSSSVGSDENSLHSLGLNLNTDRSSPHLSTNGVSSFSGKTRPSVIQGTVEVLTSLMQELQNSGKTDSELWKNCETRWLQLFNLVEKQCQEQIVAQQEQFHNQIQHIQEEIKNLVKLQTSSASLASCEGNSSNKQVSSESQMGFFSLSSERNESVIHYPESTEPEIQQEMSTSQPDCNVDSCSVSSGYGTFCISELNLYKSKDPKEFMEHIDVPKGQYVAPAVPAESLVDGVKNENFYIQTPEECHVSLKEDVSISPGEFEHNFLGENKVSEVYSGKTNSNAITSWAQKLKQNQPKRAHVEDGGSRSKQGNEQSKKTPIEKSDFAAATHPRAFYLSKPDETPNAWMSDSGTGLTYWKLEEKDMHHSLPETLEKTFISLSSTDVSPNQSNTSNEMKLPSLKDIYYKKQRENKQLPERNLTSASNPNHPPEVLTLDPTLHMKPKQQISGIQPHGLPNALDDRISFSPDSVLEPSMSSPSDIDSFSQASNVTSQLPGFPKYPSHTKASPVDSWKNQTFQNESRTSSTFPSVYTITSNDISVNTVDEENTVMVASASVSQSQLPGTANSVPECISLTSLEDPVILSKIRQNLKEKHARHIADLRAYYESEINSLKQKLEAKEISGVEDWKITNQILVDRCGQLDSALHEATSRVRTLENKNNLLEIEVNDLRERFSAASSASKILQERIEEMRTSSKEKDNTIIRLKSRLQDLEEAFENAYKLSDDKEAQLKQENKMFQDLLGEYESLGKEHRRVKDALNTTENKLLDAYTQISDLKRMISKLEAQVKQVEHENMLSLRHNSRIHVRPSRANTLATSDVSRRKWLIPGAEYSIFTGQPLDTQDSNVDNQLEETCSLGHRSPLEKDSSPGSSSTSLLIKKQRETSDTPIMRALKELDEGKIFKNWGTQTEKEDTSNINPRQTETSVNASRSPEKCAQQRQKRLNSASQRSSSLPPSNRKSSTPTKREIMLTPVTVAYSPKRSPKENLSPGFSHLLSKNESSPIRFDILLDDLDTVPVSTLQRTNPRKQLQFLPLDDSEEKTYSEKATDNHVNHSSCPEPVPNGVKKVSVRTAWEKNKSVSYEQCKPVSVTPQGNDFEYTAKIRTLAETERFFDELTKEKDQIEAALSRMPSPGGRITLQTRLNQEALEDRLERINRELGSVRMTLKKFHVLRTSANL
UniProt Q8N344: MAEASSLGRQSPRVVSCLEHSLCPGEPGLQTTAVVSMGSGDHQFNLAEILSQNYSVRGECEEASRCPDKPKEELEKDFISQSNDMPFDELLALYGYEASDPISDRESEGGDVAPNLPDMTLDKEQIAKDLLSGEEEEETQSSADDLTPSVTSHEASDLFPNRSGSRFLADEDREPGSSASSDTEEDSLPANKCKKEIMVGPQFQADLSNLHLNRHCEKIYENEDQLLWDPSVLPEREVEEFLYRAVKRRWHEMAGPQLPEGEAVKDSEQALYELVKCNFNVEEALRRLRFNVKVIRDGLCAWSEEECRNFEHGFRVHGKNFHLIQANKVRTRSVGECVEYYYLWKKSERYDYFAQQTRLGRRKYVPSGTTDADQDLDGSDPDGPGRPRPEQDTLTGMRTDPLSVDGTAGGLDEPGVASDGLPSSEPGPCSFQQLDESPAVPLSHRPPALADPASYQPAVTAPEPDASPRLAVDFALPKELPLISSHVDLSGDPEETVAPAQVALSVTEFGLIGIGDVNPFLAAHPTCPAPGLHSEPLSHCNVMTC

[2] = compound: CCCS(=O)(=O)Nc1ccc(F)c(C(=O)c2c[nH]c3ncc(Cl)cc23)c1F
In short: as §1

[3] = compound: CCN(CCCOc1ccc2c(Nc3cc(CC(=O)Nc4cccc(F)c4)[nH]n3)ncnc2c1)CCOP(=O)(O)O [barasertib]
In short: as §1

[4] = compound: CC[C@@H]1C(=O)N(C)c2cnc(Nc3ccc(C(=O)NC4CCN(C)CC4)cc3OC)nc2N1C1CCCC1
In short: as §1

[5] = compound: CC[C@@H]1C(=O)N(C)c2cnc(Nc3ccc(C(=O)N[C@H]4CC[C@H](N5CCN(CC6CC6)CC5)CC4)cc3OC)nc2N1C(C)C [volasertib]
In short: as §1

[6] = compound: CCn1c(C(=O)N(C2CC2)C2CC2)cc2c3c(ncn3C)c(Nc3cc(C)n(C)n3)nc21
In short: as §1

[7] = compound: CCn1cc(-c2ccnc3[nH]c(-c4cccc(CN(C)C)c4)cc23)c(-c2ccc(NC(=O)N(C)C)cc2)n1
In short: as §1

[8] = compound: CN1CCC(CNc2ccc3ncc(-c4cccc(OC(F)(F)F)c4)n3n2)CC1
In short: as §1

[9] = compound: CN1CCN(CCOc2cc(OC3CCOCC3)c3c(Nc4c(Cl)ccc5c4OCO5)ncnc3c2)CC1 [saracatinib]
In short: as §1

[10] = compound: CN1CCN(c2nc(C3=C(c4c[nH]c5ccccc45)C(=O)NC3=O)c3ccccc3n2)CC1 [sotrastaurin]
In short: as §1

Measured: log2 fold change

MIEF1 (UniProt Q9NQG6)
inactive: [1] -0.012 | [2] -0.012 | [3] 0.082 | [4] -0.031 | [5] -0.072 | [6] -0.021 | [7] 0.003 | [8] -0.165 | [9] 0.076 | [10] -0.004

MMAB (UniProt Q96EY8)
inactive: [1] 0.01 | [2] -0.034 | [3] 0.011 | [4] -0.009 | [5] 0.002 | [6] -0.01 | [7] -0.005 | [8] 0.034 | [9] 0.013 | [10] 0.008

MRPL20 (UniProt Q9BYC9)
inactive: [1] 0.009 | [2] -0.043 | [3] 0.003 | [4] 0.142 | [5] -0.007 | [6] 0.107 | [7] -0.011 | [8] -0.019 | [9] -0.006 | [10] 0

MOB1B isoform 2 (UniProt Q7L9L4)
inactive: [1] 0.018 | [2] -0.029 | [3] -0.014 | [4] 0.048 | [5] 0.023 | [6] 0.001 | [7] -0.075 | [8] 0.03 | [9] 0.007 | [10] 0.031

MGST3 (UniProt O14880)
active: [7] 0.286
inactive: [1] 0.012 | [2] 0.01 | [3] -0.056 | [4] 0.078 | [5] 0.076 | [6] 0.006 | [8] -0.082 | [9] -0.017 | [10] -0.015

MPDU1 (UniProt O75352)
inactive: [1] 0.094 | [2] 0.004 | [3] 0.091 | [4] 0.013 | [5] 0.047 | [6] -0.003 | [7] -0.08 | [8] 0.126 | [9] -0.028 | [10] 0.013

MIA3 (UniProt Q5JRA6)
inactive: [1] -0.012 | [2] 0.009 | [3] 0.031 | [4] 0.04 | [5] -0.022 | [6] 0.036 | [7] 0.043 | [8] -0.001 | [9] 0.006 | [10] 0.016

MKRN2 (UniProt Q9H000)
inactive: [1] 0.003 | [2] -0.008 | [3] 0.022 | [4] -0.041 | [5] -0.021 | [6] 0.038 | [7] 0.064 | [8] -0.079 | [9] 0.034 | [10] -0.042

MPHOSPH6 (UniProt Q99547)
inactive: [1] -0.086 | [2] 0.003 | [3] 0.024 | [4] 0.011 | [5] 0.016 | [6] -0.04 | [7] 0.003 | [8] -0.039 | [9] 0.008 | [10] 0.033

MGAT2 (UniProt Q10469)
inactive: [1] -0.09 | [2] -0.024 | [3] 0.057 | [4] -0.124 | [5] -0.003 | [6] 0.01 | [7] -0.055 | [8] 0.05 | [9] 0.017 | [10] -0.014

MPHOSPH10 (UniProt O00566)
inactive: [1] -0.016 | [2] 0.057 | [3] 0.072 | [4] 0.004 | [5] -0.003 | [6] 0.024 | [7] 0.125 | [8] -0.022 | [9] 0.072 | [10] -0.041

MLLT1 (UniProt Q03111)
inactive: [1] -0.063 | [2] 0.033 | [3] -0.001 | [4] -0.017 | [5] 0.025 | [6] -0.029 | [7] -0.021 | [8] -0.031 | [9] 0.005 | [10] -0.049

MRPL12 (UniProt P52815)
inactive: [1] 0.01 | [2] -0.026 | [3] 0.181 | [4] 0.036 | [5] 0.103 | [6] -0.019 | [8] -0.032 | [9] 0.004 | [10] 0.015
active: [7] -0.412

MLX (UniProt Q9UH92)
inactive: [1] 0.07 | [2] -0.059 | [3] 0.3 | [4] -0.079 | [5] 0 | [6] 0 | [7] -0.209 | [8] 0.027 | [9] 0.092 | [10] -0.11

MGAT4B isoform 3 (UniProt Q9UQ53)
inactive: [1] 0.444 | [2] 0.058 | [3] 0.024 | [4] 0.016 | [5] 0.018 | [6] 0.087 | [7] -0.114 | [8] -0.138 | [9] 0.002 | [10] -0.009

MMUT (UniProt P22033)
inactive: [1] -0.006 | [2] 0.01 | [3] 0.008 | [4] 0.002 | [5] -0.005 | [6] 0.025 | [7] -0.043 | [8] -0.021 | [9] 0.02 | [10] -0.018

MRPL15 (UniProt Q9P015)
inactive: [1] 0.004 | [2] 0.025 | [3] -0.04 | [4] 0.024 | [5] -0.018 | [6] -0.062 | [8] 0.174 | [9] -0.07 | [10] 0.023
active: [7] -0.509

Looked up one by one from above, 2 records:
MRPL15 (UniProt Q9P015)
inactive: [1] 0.004 | [2] 0.025 | [3] -0.04 | [4] 0.024 | [5] -0.018 | [6] -0.062 | [8] 0.174 | [9] -0.07 | [10] 0.023
active: [7] -0.509

MMUT (UniProt P22033)
inactive: [1] -0.006 | [2] 0.01 | [3] 0.008 | [4] 0.002 | [5] -0.005 | [6] 0.025 | [7] -0.043 | [8] -0.021 | [9] 0.02 | [10] -0.018

Further results:

MOGS (UniProt Q13724)
inactive: [1] 0.046 | [2] 0.01 | [3] 0.011 | [4] 0.029 | [5] -0.008 | [6] -0.004 | [7] -0.003 | [8] 0.018 | [9] 0.019 | [10] 0.016

MINDY4 (UniProt Q4G0A6)
inactive: [3] -0.169 | [6] -0.085 | [7] -0.002 | [8] -0.011 | [9] -0.053

MRC2 (UniProt Q9UBG0)
inactive: [4] 0.205 | [7] 0.053 | [8] 0.124 | [9] 0.301 | [10] -0.054

MPHOSPH9 (UniProt Q99550)
inactive: [1] 0.022 | [3] 0.074 | [4] 0.176 | [7] -0.061 | [8] -0.055 | [10] 0.071

MIER2 (UniProt Q8N344)
inactive: [1] 0.084 | [3] -0.061 | [4] -0.053 | [6] 0 | [7] -0.081 | [8] -0.059 | [9] -0.119
